# B1: YK93-8: keratin with the amino acid sequence shown in SEQ ID NO.1, expressed in Escherichia coli, band around 63 KD; protein of Example 3 (protein, listed as Manis pentadactyla)
# chain: MSCRSYRVSSGRQIGNFSSCSAVMPQSLSRFRASSVSCRSGPGFRGLGGFGSRSVIAFGSCPPRMAAVGPRPIRCGVGFSAGSGLAFGLGDSCGAGLGFGTGSGLGYGFGGPGFGYRIGGVGVPAAPSITAVTVNQSLLTPLNLEIDPNAQRVKRDEKEQIKTLNNKFASFIDKVRFLEQQNKLLETKWNFLQDQKGVQSNLEPLFENYVANLRRQLDIVSSDQARLETERNNMQDVLEGFKKKYEEEVVFRANAENEFVALKKDVDAAFLNKSDLEANVDALIQEIDFLKNLYMAEIQLLQSHISDTSVIVKMDNSRDLNFDGIIAEVKAQYEEVARRSRADAEAWYQTKYEEMRMTAGQHSDNLRNTRDEINELTRVIQRLKAEIEHTKAQRAKLEAAIAEAEQQGEAALNDAKCKLADLEAALQQAKQDMARQLREYQELMNIKLALDIEIATYRRLLEGEEIRICEGVGPVNISVSSSRGGVVCGPEPLLTSSTLSRGGVTFSGGSSIRSSGACGLSLGGSRVVAAGGDVLSAGSRGGSVLVGDACAPSIPCPLPTDGGFSSCSGGRSSLGSSVRFVSTTTSRRTKY
# System: Lewis lung cancer
# Conditions: 0.5 g/kg, vs normal control group, P<0.05
# Description: Subcutaneous inoculation of Lewis cell suspension to replicate mouse Lewis lung cancer model: The Lewis tumor tissue was ground into a suspension with a glass homogenizer, the tumor suspension was aspirated with a syringe, the number of live cells was calculated, the concentration of the cells was adjusted to 2.6*10^6/ml with physiological saline, and then the suspension was injected to the left armpit of the mouse with 0.2 ml/mouse. On the next day, the mice were randomly divided into normal control group, cyclophosphamide (100 mg/kg) group, and YK93-8 (0.5 g/kg) group. Cyclophosphamide was injected intraperitoneally for single time, mice in YK93-8 group were given intragastric administration every day for 10 consecutive days, mice in the normal control group were orally given the equal volume of sodium carboxymethyl cellulose. On the day of the treatment, the weight was measured, 20 μl of blood was obtained from the orbital blood and the routine blood analysis was performed. The tumor blocks were stripped, weighed and photographed, and the tumor suppression rate was calculated.
# The tumor suppression rate [(The average weight of the tumor in the normal control group—the average weight of the tumor in the experimental group)/The average weight of the tumor in the normal control group×100%] and the average value, standard deviation and standard errors of tumor weight were calculated.
molecule,measurement,setting,value
B1,number of neutrophils (blood routine test),peripheral blood,significantly reduce
same,number of monocytes in peripheral blood,,increase
